Source: PubChem BioAssay AID1259254 (NCATS, 2017)
Here is a random part of about 59,000 reagents. About 1,550 of them (2.6%) were called active. 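G2 share is only a proxy for re-replication; each gene was hit by three separate siRNAs, and active genes were retested.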 Entries without a mark were called inactive. The numbers tell different reagents against one gene apart. Further read-outs or replicates are left out here. Not stated in the record: the amount of reagent.

- Screen: 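Finding genes that stop cells copying their DNA twice in one cycle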 (primary screen)
- Cells: human HCT116 colorectal cancer cells
- Reagent: single siRNA against human genes
- Time to read-out: 3 days
- Measured: 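Imaged Hoechst DNA stain sorts each cell into a cycle phase by DNA amount; per plate, G2 fraction set to 0% for non-targeting and 100% for GMNN siRNA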
- Direction: G2 robust z-score: higher = more G2 cells, more excess DNA replication
- Rule for the call: 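Active siRNAs have a G2 robust z of 5 or more median absolute deviations over the median, which in these data means about 38% or higher of GMNN control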

For ARHGAP29 (Rho GTPase activating protein 29) #1, what does the deposit list?
G2 robust z-score: -0.121

How did the screen score ARHGAP29 (Rho GTPase activating protein 29) #2?
G2 robust z-score: 4.43

What did the screen give for ARHGAP29 (Rho GTPase activating protein 29) #3?
G2 robust z-score: 0.517

For SHROOM2 (shroom family member 2) #1, what does the deposit list?
G2 robust z-score: 1.94

For SHROOM2 (shroom family member 2) #2, how do the results read?
G2 robust z-score: -0.146

What is on record for SHROOM2 (shroom family member 2) #3?
G2 robust z-score: 0.871

What is on record for FAM133B (family with sequence similarity 133 member B) #1?
G2 robust z-score: -0.0782

For FAM133B (family with sequence similarity 133 member B) #2, what was measured?
G2 robust z-score: -0.0293

With FAM133B (family with sequence similarity 133 member B) #3, what was measured?
G2 robust z-score: 0.489

How did the screen score GABARAPL2 (GABA type A receptor associated protein like 2) #1?
G2 robust z-score: 0.796

What is on record for GABARAPL2 (GABA type A receptor associated protein like 2) #2?
G2 robust z-score: -0.47

What did the screen give for GABARAPL2 (GABA type A receptor associated protein like 2) #3?
G2 robust z-score: 0.653

With TMEM14C (transmembrane protein 14C) #1, what was measured?
G2 robust z-score: -1.03

With TMEM14C (transmembrane protein 14C) #2, how do the results read?
G2 robust z-score: -0.326

What did the screen give for TMEM14C (transmembrane protein 14C) #3?
G2 robust z-score: -0.182

What did the screen give for CFAP44 (cilia and flagella associated protein 44) #1?
G2 robust z-score: -0.626

For CFAP44 (cilia and flagella associated protein 44) #2, what does the deposit list?
G2 robust z-score: 0.565

With CFAP44 (cilia and flagella associated protein 44) #3, what does the deposit list?
G2 robust z-score: -0.641

How did the screen score CLU (clusterin) #1?
G2 robust z-score: 0.00208

Which result is listed for CLU (clusterin) #2?
G2 robust z-score: -0.278

With CLU (clusterin) #3, what does the deposit list?
G2 robust z-score: 3.47

What is on record for SYNPO2L (synaptopodin 2 like) #1?
G2 robust z-score: 3.89

For SYNPO2L (synaptopodin 2 like) #2, what does the deposit list?
G2 robust z-score: -0.895

With SYNPO2L (synaptopodin 2 like) #3, what does the deposit list?
G2 robust z-score: -0.759

How did the screen score IGFBP6 (insulin like growth factor binding protein 6) #1?
G2 robust z-score: -0.085

With IGFBP6 (insulin like growth factor binding protein 6) #2, what was measured?
G2 robust z-score: 0.196

With IGFBP6 (insulin like growth factor binding protein 6) #3, how do the results read?
G2 robust z-score: -0.0297

How did the screen score SNX12 (sorting nexin 12) #1?
G2 robust z-score: 0.795

For SNX12 (sorting nexin 12) #2, what does the deposit list?
G2 robust z-score: -0.967

What is on record for SNX12 (sorting nexin 12) #3?
G2 robust z-score: 1.73

Targets listed so far whose target name starts with A or a:
ARHGAP29 (Rho GTPase activating protein 29) #1 → G2 robust z-score = -0.121
ARHGAP29 (Rho GTPase activating protein 29) #2 → G2 robust z-score = 4.43
ARHGAP29 (Rho GTPase activating protein 29) #3 → G2 robust z-score = 0.517
